# Test results: the supplement of paper PMC8256030
# Several values for one entry are separate records, joined by “and”; a condition that tells them apart may be missing. Equal values may be shown once. Where a name gives a salt, the structure may show the parent alone. Some of the results follow. Single values are uncertain here, since repeats match poorly.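 HEK293T cells were given each compound shortly before transfection with a reporter in which red mCherry is followed by the SARS-CoV-2 frameshift element and then GFP in the −1 frame, so GFP appears only after frameshifting.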
# Experiments:
# HEK293T = experiment: percent viability (nuclei count) relative to control; higher = more viable cells; settings: 10 µM; 24 h
# [1] = tested on: SARS-CoV-2 -1 PRF reporter mCherry-FSE-GFP(-1); experiment: mCherry (red) intensity as percent of control; higher = higher upstream reporter expression; settings: 10 µM; 24 h; HEK293T
# [2] = tested on: SARS-CoV-2 -1 PRF reporter mCherry-FSE-GFP(-1); experiment: percent effect, decrease of GFP/mCherry ratio (-1 PRF reporter) relative to controls; higher = stronger frameshift inhibition; settings: 10 µM; 24 h; HEK293T
SMILES,percent viability (HEK293T),mCherry [1],percent effect [2]
Clc1ccc(OC[C@H]2CCN2)cn1 [tebanicline],250%,107%,-6.19%
C=C1C[C@@H]2[C@H](CC[C@]3(C)C(=O)CC[C@@H]23)[C@@]2(C)C=CC(=O)C=C12 [exemestane],364% and 302%,89.7% and 91%,-0.98% and -3.36%
Cc1nnc2n1-c1sc(CCC(=O)N3CCOCC3)cc1C(c1ccccc1Cl)=NC2 [apafant],162%,78.9%,-1.08%
C[N+]1(C)CCCC(OC(=O)C(O)(c2ccccc2)c2ccccc2)C1 (stereo not drawn) [mepenzolate bromide],128%,123%,-7.46%
Clc1ccc(C2(Cn3cncn3)OCCO2)c(Cl)c1 [azaconazole],150%,102%,-2.19%
Oc1cc(Cl)ccc1Oc1ccc(Cl)cc1Cl [triclosan],214%,75.6%,-4.21%
Cc1cccc(C)c1NC(=O)CN1CCCC1=O [nefiracetam],101%,67.8%,-3.17%
CC(OC(N)=O)C(C)C(C)OC(N)=O (stereo not drawn) [pentabamate],50.2%,85%,-4.58%
CN1C[C@H](C(=O)N[C@]2(C)O[C@@]3(O)[C@@H]4CCCN4C(=O)[C@H](Cc4ccccc4)N3C2=O)C[C@@H]2c3cccc4[nH]cc(c34)C[C@H]21 [Dihydroergotamine mesylate],263%,76.7%,-4.83%
COP(=O)(OC)OC=C(Cl)Cl [dichlorvos],64.5%,96.3%,-4.75%
CC(N)Cc1ccc2c(c1)OCO2 (stereo not drawn) [tenamfetamine],242%,109%,-4.83%
COc1ccc(CN2CCNCC2)c(OC)c1OC [trimetazidine],320%,107%,-7.96%
CN[C@H]1CCc2cc(OC)c(OC)c(OC)c2-c2ccc(OC)c(=O)cc21 [demecolcine],25.1%,42.7%,-17.6%
Cc1nnc2n1-c1sc(Br)cc1C(c1ccccc1Cl)=NC2 [brotizolam],20.9%,107%,-15.5%
C[C@]12CCC(=O)C=C1C=C[C@@H]1[C@@H]2CC[C@@]2(C)[C@H]1CC[C@@]2(O)CCC(=O)O [Potassium Canrenoate],245%,76.4%,-3.38%
CCC1(CC)C(=O)C=CNC1=O [pyrithyldione],244%,91.3%,0.834%

# Copied from the entries so far for reference:
SMILES,percent viability (HEK293T),mCherry [1],percent effect [2]
CN1C[C@H](C(=O)N[C@]2(C)O[C@@]3(O)[C@@H]4CCCN4C(=O)[C@H](Cc4ccccc4)N3C2=O)C[C@@H]2c3cccc4[nH]cc(c34)C[C@H]21 [Dihydroergotamine mesylate],263%,76.7%,-4.83%
COP(=O)(OC)OC=C(Cl)Cl [dichlorvos],64.5%,96.3%,-4.75%
CC(N)Cc1ccc2c(c1)OCO2 (stereo not drawn) [tenamfetamine],242%,109%,-4.83%
COc1ccc(CN2CCNCC2)c(OC)c1OC [trimetazidine],320%,107%,-7.96%
CN[C@H]1CCc2cc(OC)c(OC)c(OC)c2-c2ccc(OC)c(=O)cc21 [demecolcine],25.1%,42.7%,-17.6%
Cc1nnc2n1-c1sc(Br)cc1C(c1ccccc1Cl)=NC2 [brotizolam],20.9%,107%,-15.5%

# The list goes on:

SMILES,percent viability (HEK293T),mCherry [1],percent effect [2]
O=C1CCCN1CC#CCN1CCCC1 [Oxotremorine],237%,87.6%,-3.04%
CN1CC[C@]23CCCC[C@H]2[C@H]1Cc1ccc(O)cc13 [levorphanol],325%,105%,-1.69%
C[C@]12C=CC(=O)C=C1CC[C@@H]1[C@@H]2CC[C@]2(C)OC(=O)CC[C@@H]12 [testolactone],77.1%,129%,3.76%
COc1cc([C@@H]2c3cc4c(cc3[C@H](O)[C@H]3COC(=O)[C@H]23)OCO4)cc(OC)c1OC [Podofilox],19.8%,21.9%,-6.46%
CCCCCCCCCCCCCCCC[n+]1ccccc1 [cetylpyridinium chloride],16.7%,13.7%,0.627%
C=C/C=C\CC1=C(C)[C@@H](OC(=O)[C@@H]2[C@@H](C=C(C)C)C2(C)C)CC1=O,162%,104%,-4.57%
NCC1(CC(=O)O)CCCCC1 [gabapentin],225%,93.7%,1.28%
CN(C)[C@@H]1C(=O)C(C(N)=O)=C(O)[C@@]2(O)C(=O)C3=C(O)c4c(O)cccc4[C@@](C)(O)[C@H]3C[C@@H]12 [tetracycline],117%,89%,-4.39%
CCN(C(C)=O)c1cccc(-c2ccnc3c(C#N)cnn23)c1 [zaleplon],134% and 206%,102% and 122%,0.132% and 0.448%
CCC(=O)C(CC(C)N(C)C)(c1ccccc1)c1ccccc1 (stereo not drawn) [Amidone],336%,100%,-5.52%
O=c1n(Cl)c(=O)n(Cl)c(=O)n1Cl [symclosene],225%,79.2%,-1.92%
CN(C)[C@@H]1C(=O)C(C(N)=O)=C(O)[C@@]2(O)C(=O)C3=C(O)c4c(O)ccc(Cl)c4[C@@](C)(O)[C@H]3C[C@@H]12 [Aureocycline],286%,106%,-1.33%
c1ccc2c(c1)OCC(C1=NCCN1)O2 (stereo not drawn),102%,79.4%,-2.99%
CC(C)C[C@H](CN)CC(=O)O [pregabalin],289%,102%,-2.49%
O=c1[nH]c(=O)n(Cl)c(=O)n1Cl [troclosene potassium],288%,91.4%,1.02%
